# Laboratory results: PubChem BioAssay AID504804 (Drosophila RNAi Screening Center, 2011)
# Test: 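Fly genes whose loss lessens doxorubicin-driven cell death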 (primary screen)
# Cell system: Drosophila Kc cells
# Knock-down reagent: long dsRNA against Drosophila genes, 0.5 µg dsRNA per well
# Time to read-out: 96 h (48 h knock-down, then 48 h drug)
# Conditions: doxorubicin 5 µg/ml for 48 h, added 48 h after dsRNA
# Measured: 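Viability measured as cellular ATP by luminescence after 48 h knock-down then 48 h doxorubicin at 5 µg/ml; unnormalised plate counts for each replicate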
# Scale: raw ATP luminescence: higher = more viable cells, protection from doxorubicin
# Active means: 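Active when both duplicate wells lie at least 2 SD above the plate mean and protection is confirmed by rescreening and independent dsRNAs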
# The deposit covers about 19,000 reagents; shown is an unselected part of those that have a named target and a result. In the full data, 47 (0.25%) got an active call. 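Signals are raw, not normalised; exact z-scores behind calls not deposited; actives needed confirmation, so some wells reaching 2 SD are inactive.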 Unmarked entries are inactive. Names joined by + are all predicted targets of the reagent. No sequences are given here.
Gene,DRSC id,"raw ATP luminescence, replicate 1","raw ATP luminescence, replicate 2"
Art4,DRSC15779,42617,52530
Nadk1a,DRSC05431,85570,1.04e5
Nadk1a,DRSC06963,69720,58823
Drsl4,DRSC08034,1.35e5,1.23e5
CG7579,DRSC10885,67180,49063
CG31898,DRSC01019,2.83e5,3.05e5
CG34435,DRSC18086,26370,43470
Lsp1beta,DRSC00757,1.11e5,75127
Vps39,DRSC16205,40867,35597
Tfb1,DRSC07082,62923,38933
Sema5c,DRSC11279,95533,73483
kri,DRSC10515,41807,42207
crok,DRSC02593,68703,62633
CG11898,DRSC14432,33120,46110
ORMDL,DRSC11737,72967,67523
CG11438,DRSC11660,71007,57730
CG32832,DRSC01562,2.76e5,2.46e5
CG5002,DRSC06911,64640,56347
CG14777,DRSC18563,57960,68050
Mal-A4,DRSC07236,40250,78600
CG5910,DRSC11786,61873,52830
rk,DRSC03602,78670,74820
rgn,DRSC11609,25490,19720
Cyp4p3,DRSC07374,47333,65817
Sec15,DRSC16179,64490,1.03e5
tsu,DRSC07265,64180,64770
CG6244,DRSC10609,54433,47470
CG14273,DRSC02377,39843,64780
CG14857,DRSC14981,75500,72530
flr,DRSC09787,45693,53660
CG31010,DRSC14006,2.57e5,2.16e5
CG4783,DRSC15644,1.94e5,2.02e5
CG8195,DRSC07103,59430,81313
Kdm4B,DRSC06862,53083,52860
CG13590,DRSC04226,65373,55250
Ho,DRSC14939,62943,31980
Pka-C3,DRSC09402,82050,77453
Pka-C3,DRSC11254,49280,42433
CG13728,DRSC10056,52237,37473
glec,DRSC16958,80770,90970
Cdc14,DRSC03013,46670,61393
Pof,DRSC04405,69000,59983
Noc3,DRSC12535,43287,24237
CG1105,DRSC12528,42623,25753
CG43861 + CG12508 (retired record),DRSC02170,67133,55003
CG31140,DRSC13649,2.48e5,2.81e5
CG31140,DRSC14603,48810,50837
CG31140,DRSC15904,65260,84390
phtf,DRSC05023,81357,94533
eIF4E7,DRSC17782,36760,58720
eIF4E7,DRSC18623,45820,56790
CG8117,DRSC20082,3.67e5,2.31e5
dia,DRSC03519,72840,74433
CG5478,DRSC15814,65690,70800
CG6607,DRSC16073,65910,68520
Cyp313a1,DRSC16624,76660,77210
RluA-2,DRSC02939,96383,62103
Snrk,DRSC07192,43287,43557
CG9822,DRSC04568,64840,50610
CG32069 + Blos2,DRSC10621,46593,37700
P58IPK,DRSC16404,55360,55493
ndl,DRSC11374,83690,80150
neb,DRSC03577,91637,90633
HipHop,DRSC10734,19927,17833
CG31495,DRSC16762,88060,71400
His-Psi:CR31616 + His-Psi:CR31615,DRSC03760,50343,47580
CG11437,DRSC11659,64487,70153
pnr,DRSC17027,41283,50560
UBL3,DRSC20298,2.23e5,1.81e5
cact,DRSC03501,72853,48160
bai,DRSC14388,73540,60210
Glo1,DRSC06657,69930,76967
CG14257,DRSC14752,69820,42550
CG30192,DRSC03977,76837,52750
GluRIIB,DRSC03335,26213,29890
Dlg5,DRSC02964,72300,63663
CG8861,DRSC12731,80837,59690
CG8861,DRSC16449,41680,49993
slx1,DRSC12290,68483,53687
Usp8,DRSC15876,47050,46107
SecS,DRSC12222,58753,63733
CCHa2-R,DRSC04825,65910,84097
CCHa2-R,DRSC04870,39570,46730
CCHa2-R,DRSC04871,47277,41177

As entered above:
CG31140 [DRSC15904], raw ATP luminescence, replicate 1 → 65260
CG34435 [DRSC18086], raw ATP luminescence, replicate 2 = 43470
CG8195 [DRSC07103], raw ATP luminescence, replicate 1 = 59430
Value for CG8861 [DRSC16449] in “raw ATP luminescence, replicate 1”: 41680
tsu [DRSC07265], raw ATP luminescence, replicate 1: 64180
Under “raw ATP luminescence, replicate 1”, CG6244 [DRSC10609] has 54433
